The text below walks through data of PubChem BioAssay AID256 (DTP/NCI, 2004).

The subject of this assay is CD2F1 mice, L1210 leukemia ip, survival T/C. In words: NCI In Vivo Anticancer Drug Screen. Data for tumor model L1210 Leukemia (intraperitoneal) in CD2F1 (CDF1) mice. The note with it: higher T/C = longer survival. The essentials:
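Mice carrying a transplanted tumor received test compound or vehicle alone. The value is the measurement in the treated group divided by that in the vehicle-treated control group.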

The mark [1] stands for this setting: T/C endpoint: mean survival time, dose: 400.0 mg/kg/injection, schedule: Q04DX002 (ip), vehicle: saline with Tween-80.
Setting [2] is: T/C endpoint: mean survival time, dose: 12.5 mg/kg/injection, schedule: Q01DX009 (ip), vehicle: water.
Where [3] appears, read: T/C endpoint: mean survival time, dose: 25.0 mg/kg/injection, schedule: Q01DX009 (ip), vehicle: water.
The mark [4] stands for this setting: T/C endpoint: mean survival time, dose: 400.0 mg/kg/injection, schedule: Q04DX003 (ip), vehicle: saline.
[5] abbreviates: T/C endpoint: mean survival time, dose: 200.0 mg/kg/injection, schedule: Q01DX009 (ip), vehicle: saline.

The list does not hold the whole screen: it is rich in T/C values a quarter to a half above the control, in often repeated tests (any T/C) and in doses without a T/C. Other doses and runs of a compound stand elsewhere. T/C gives the treated animals as a percentage of the vehicle group. Some entries give survivors of the animals treated and no T/C: the source holds a T/C of zero for them, seemingly a mark for toxic or unscored doses. Some survivor counts are full or nearly so, which does not show that the dose was tolerated: survival well below the control is almost never listed, so the zero probably covers shortened survival too. Counts of survivors are from the toxicity check (mostly the fifth day) where no day follows; animals may have died later. Schedule codes are those of the source, taken here to give the interval after Q, in days (D) or hours (H), and the number of doses after X. For survival time, this PubChem deposit counts one and a half times the control or more as active, and values a quarter to a half above the control carry no call in these data; other NCI protocols may use other cut-offs. Some T/C values are followed by the survivors on the day toxicity was checked, most often the fifth; where none is given, no animal had died by that day.

For the molecule `CCC1(O)CC2CN(CCc3c([nH]c4ccccc34)C(C(=O)OC)(c3cc4c(cc3OC)N(C)C3C(O)(C(N)=O)C(O)C5(CC)C=CCN6CCC43C65)C2)C1` (stereo not given) (tested in a mixture with another compound), the T/C is, setting by setting: (T/C endpoint: mean survival time, dose: 0.6 mg/kg/injection, schedule: Q01DX009 (ip), vehicle: water) 130 % of control [5 of 6 alive]; (T/C endpoint: mean survival time, dose: 0.65 mg/kg/injection, schedule: Q04DX003 (ip), vehicle: water) 128 % of control; (T/C endpoint: mean survival time, dose: 0.86 mg/kg/injection, schedule: Q04DX003 (ip), vehicle: water) 125 % of control [5 of 6 alive]; (T/C endpoint: mean survival time, dose: 1.08 mg/kg/injection, schedule: Q04DX003 (ip), vehicle: water) 140 % of control; (T/C endpoint: mean survival time, dose: 2.4 mg/kg/injection, schedule: Q04DX003 (ip), vehicle: water) 127 % of control [5 of 6 alive]; (T/C endpoint: mean survival time, dose: 3.0 mg/kg/injection, schedule: Q04DX003 (ip), vehicle: water) 134 % of control. The survivor count (T/C endpoint: mean survival time, dose: 1.0 mg/kg/injection, schedule: Q01DX009 (ip), vehicle: water) is 3 of 6.
Turning to `CCCCCCCCCCCCCCCCCC[N+](CC)(CC)CC`, the survivor count (T/C endpoint: mean survival time, dose: 6.0 mg/kg/injection, schedule: Q01DX001 (ip), vehicle: Klucel (hydroxypropylcellulose) (HPC)) is 6 of 6.
As for `CCCCCCCS(=O)CCCl` (stereo not given), under setting [1], the survivor count was 2 of 3.
As to `CN(Cc1cnc2nc(N)nc(N)c2n1)c1c(Cl)cc(C(=O)NC(CCC(=O)O)C(=O)O)cc1Cl` (stereo not given), the T/C (T/C endpoint: mean survival time, dose: 200.0 mg/kg/injection, schedule: Q01DX009 (ip), vehicle: sodium bicarbonate) was 127 % of control and the T/C (T/C endpoint: median survival time, dose: 100.0 mg/kg/injection, schedule: Q01DX009 (ip), vehicle: sodium bicarbonate) was 140 % of control.
On to `Cc1cccc(-c2nn[nH]n2)n1`, for which the survivor count (T/C endpoint: mean survival time, dose: 50.0 mg/kg/injection, schedule: Q01DX001 (ip), vehicle: saline with Tween-80) was 3 of 3.
Consider `c1cncc(-c2nnc(-c3cccnc3)o2)c1`, for which the survivor count is, setting by setting: (T/C endpoint: mean survival time, dose: 50.0 mg/kg/injection, schedule: Q04DX002 (ip), vehicle: saline with Tween-80) 1 of 3; under setting [1], 0 of 3.
On to `C(CC1CCNCC1)CC1CCNCC1`, for which the survivor count (T/C endpoint: mean survival time, dose: 100.0 mg/kg/injection, schedule: Q04DX003 (ip), vehicle: saline with Tween-80) was 0 of 3.
As for `N=C(N)c1ccc(N=NNc2ccc(C(=N)N)cc2)cc1`, the survivor count (T/C endpoint: median survival time, dose: 50.0 mg/kg/injection, schedule: Q01DX009 (ip), vehicle: saline with Tween-80) is 5 of 6; the survivor count (T/C endpoint: median survival time, dose: 100.0 mg/kg/injection, schedule: Q01DX009 (ip), vehicle: saline with Tween-80) is on record as 0 of 6; the survivor count (T/C endpoint: median survival time, dose: 200.0 mg/kg/injection, schedule: Q01DX009 (ip), vehicle: saline with Tween-80) was 0 of 6.
With `Cc1ccc(S(=O)(=O)NCCC(=O)Nc2ccccc2)cc1`, the survivor count is listed as 6 of 6 under setting [2] and 6 of 6 under setting [3].
For the molecule `C[S+](C)CCC1NC(=O)NC1=O` (stereo not given), under setting [4], the survivor count is reported as 2 of 6.
On to `[N-]=[N+]=NCC1OC(OC2(CO)OC(CN=[N+]=[N-])C(O)C2O)C(O)C(O)C1O` (stereo not given), for which the survivor count under setting [5] is 2 of 3.
As to `O=C(CCN1CCCCC1)c1ccc(C(F)(F)F)cc1`, the survivor count reads like this: under setting [2], 6 of 6; (T/C endpoint: mean survival time, dose: 25.0 mg/kg/injection, schedule: Q01DX009 (ip), vehicle: saline) 0 of 6; under setting [3], 0 of 6; (T/C endpoint: mean survival time, dose: 50.0 mg/kg/injection, schedule: Q01DX009 (ip), vehicle: saline) 0 of 6; (T/C endpoint: mean survival time, dose: 100.0 mg/kg/injection, schedule: Q01DX009 (ip), vehicle: saline) 0 of 6; under setting [5], 0 of 6.
For `C/C=C(\C)C(=O)OC1C(C)C2(O)C(C=C(CO)CC3(O)C(=O)C(C)=CC32)C2C(C)(C)C12OC(=O)CCCCCCCCC` (stereo not given), the survivor count (T/C endpoint: mean survival time, dose: 500.0 micrograms/kg/injection, schedule: Q01DX009 (ip), vehicle: saline + alcohol) is on record as 1 of 6.
With `C[n+]1ccccc1/C=N/O`, the survivor count by setting is: (T/C endpoint: mean survival time, dose: 200.0 mg/kg/injection, schedule: Q04DX003 (ip), vehicle: saline) 0 of 6; under setting [4], 0 of 6.
Turning to `O=c1nc(Oc2ccccc2)nc2ncccn12`, where the note is “T/C endpoint: mean survival time, dose: 100.0 mg/kg/injection, schedule: Q01DX009 (ip), vehicle: saline with Tween-80”, the survivor count is given as 0 of 6.
Regarding `O=C(CC(=Nc1ccccc1)c1ccccc1)c1ccccc1.O=C(CC(=Nc1ccccc1)c1ccccc1)c1ccccc1.[Cu]`, the survivor count (T/C endpoint: mean survival time, dose: 50.0 mg/kg/injection, schedule: Q01DX009 (ip), vehicle: saline with Tween-80) is on record as 3 of 6.
On to `CSc1ncnc2c1cnn2C1OC(COC(C)=O)C(OC(C)=O)C1OC(C)=O` (stereo not given), for which the T/C (T/C endpoint: median survival time, dose: 72.0 mg/kg/injection, schedule: Q01DX005 (ip), vehicle: distilled water + Tween-80) was 130 % of control.
For `O=[N+]([O-])c1c[nH]n2c([N+](=O)[O-])cnc12`, the survivor count by setting is: (T/C endpoint: mean survival time, dose: 50.0 mg/kg/injection, schedule: Q01DX009 (ip), vehicle: water) 3 of 6; (T/C endpoint: mean survival time, dose: 100.0 mg/kg/injection, schedule: Q01DX009 (ip), vehicle: water) 0 of 6; (T/C endpoint: mean survival time, dose: 200.0 mg/kg/injection, schedule: Q01DX009 (ip), vehicle: water) 0 of 6.
For `c1ccc(C2CC([P+](c3ccccc3)(c3ccccc3)c3ccccc3)=NN2CC[P+](c2ccccc2)(c2ccccc2)c2ccccc2)cc1` (stereo not given), the survivor count (T/C endpoint: mean survival time, dose: 12.5 mg/kg/injection, schedule: Q04DX003 (ip), vehicle: saline with Tween-80) was 0 of 6; the survivor count (T/C endpoint: mean survival time, dose: 25.0 mg/kg/injection, schedule: Q04DX003 (ip), vehicle: saline with Tween-80) is given as 0 of 6; the survivor count (T/C endpoint: mean survival time, dose: 50.0 mg/kg/injection, schedule: Q04DX003 (ip), vehicle: saline with Tween-80) was 0 of 6.
Turning to `CCCc1nc2[nH]cnc(=S)c2[nH]1`, the survivor count reads like this: (T/C endpoint: mean survival time, dose: 100.0 mg/kg/injection, schedule: Q01DX005 (ip), vehicle: other) 1 of 6; (T/C endpoint: mean survival time, dose: 200.0 mg/kg/injection, schedule: Q01DX005 (ip), vehicle: other) 2 of 6.
In the case of `ClC1(Cl)C2CCCCC21` (stereo not given), the survivor count (T/C endpoint: mean survival time, dose: 400.0 mg/kg/injection, schedule: Q04DX003 (ip), vehicle: saline with Tween-80) is on record as 2 of 6.
Take `CCCCCCCCCCCCCC(=O)OC1C(CO)OC2C1Oc1nc(=N)ccn12` (stereo not given): where the note is “T/C endpoint: mean survival time, dose: 12.5 mg/kg/injection, schedule: Q01DX009 (ip), vehicle: other”, the T/C was 144 % of control. For the same molecule, the survivor count (T/C endpoint: mean survival time, dose: 200.0 mg/kg/injection, schedule: Q01DX009 (ip), vehicle: other) is listed as 2 of 6.
